Reference: paper PMC5978872

Biological target: T1, MPN domain of CSN5B fused to a YFP fragment for BiFC in tobacco leaves (Arabidopsis) (UniProt Q9FVU9)
T1 sequence: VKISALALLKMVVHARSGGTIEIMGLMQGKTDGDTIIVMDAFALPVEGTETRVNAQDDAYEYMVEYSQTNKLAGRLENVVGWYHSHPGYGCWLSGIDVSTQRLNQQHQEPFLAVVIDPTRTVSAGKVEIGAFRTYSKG
Assay: split reporter; BiFC with cYFP and nYFP fusions transiently co-expressed in tobacco leaves; YFP seen by confocal laser scanning microscopy 48 h after infiltration

- binding: binds
Substance: VTC1 fused to a YFP fragment for BiFC in tobacco leaves (Arabidopsis) (enzyme)

Results are given in words; binding and its absence hold for the method and conditions named. In cells and extracts the contact can be indirect. Binding calls can cover weak binding; strength is not graded here. Tags and fused reporters may be left off the sequences shown.
